Reference: the supplement of paper PMC11659162
The other results are listed elsewhere or left out. The data scatter; read single values as rough.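 The cells are a human neuroglioma line carrying a green fluorescent autophagy reporter.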

Columns and labels:
H4 GFP-LC3 [1] = test: cell viability (scaled to control) (fraction of control); higher = more viable cells; details: 5 µM
H4 GFP-LC3 [2] = test: ACBP immunofluorescence intensity (scaled to control) (AU (scaled)); higher = more intracellular ACBP/DBI; details: 5 µM

SMILES | cell viability (H4 GFP-LC3 [1]; 6 h) | cell viability (H4 GFP-LC3 [1]; 24 h) | ACBP immunofluorescence intensity (H4 GFP-LC3 [2]; 6 h) | ACBP immunofluorescence intensity (H4 GFP-LC3 [2]; 24 h)
O=C1NCN(c2ccccc2)C12CCN(CC1COc3ccccc3O1)CC2 (configuration not stated) | 0.861 | 1.03 | 0.838 | 0.489
CCCN1CCC[C@@H]2Cc3nc(N)ncc3C[C@H]21 | 0.769 | 1.43 | 0.962 | 0.85
C[C@H](Cc1ccc(OCC(=O)O)cc1)NC[C@H](O)c1cccc(Cl)c1 | 0.812 | 0.812 | 0.827 | 0.393
S=C(NC1CCCCC1)N1CCC(c2cnc[nH]2)CC1 | 0.946 | 1.07 | 0.977 | 0.911
CC(C)NC1CCn2c(=O)[nH]c3cccc(c32)C1O (configuration not stated) | 0.918 | 0.882 | 0.527 | 0.459
CC(=O)OC1CN2CCC1CC2 (configuration not stated) | 1 | 1.29 | 0.859 | 0.482
c1ccc(CCCCN2CCC(c3ccccc3)CC2)cc1 | 1.08 | 1.06 | 0.897 | 0.588
Fc1ccc(C(OCCN2CCN(CCCc3ccccc3)CC2)c2ccc(F)cc2)cc1 | 0.842 | 0.972 | 0.954 | 0.609
O=C1/C(=C/c2ccccc2)C[C@@]2(O)[C@H]3Cc4ccc(O)c5c4[C@@]2(CCN3CC2CC2)[C@H]1O5 | 1.1 | 1.22 | 0.897 | 0.792
CC(C)(Cc1c[nH]c2ccc(Cl)cc12)NCCOc1ccccc1OCC1CC1 | 0.896 | 0.777 | 0.948 | 0.73
COc1ccc(C(=O)N2CCCC2=O)cc1 | 1.09 | 1.23 | 0.794 | 0.492
NCC(CC(=O)O)c1ccc(Cl)cc1 (racemic) | 0.913 | 1.07 | 0.956 | 0.536
CC(=O)N1CC[N+](C)(C)CC1 | 1.05 | 1.09 | 0.946 | 0.781

Reformatted as comma-separated lines: 2 of the compounds above
SMILES,cell viability (H4 GFP-LC3 [1]; 6 h),cell viability (H4 GFP-LC3 [1]; 24 h),ACBP immunofluorescence intensity (H4 GFP-LC3 [2]; 6 h),ACBP immunofluorescence intensity (H4 GFP-LC3 [2]; 24 h)
NCC(CC(=O)O)c1ccc(Cl)cc1 (racemic),0.913,1.07,0.956,0.536
CC(=O)N1CC[N+](C)(C)CC1,1.05,1.09,0.946,0.781
